Source: article PMC6527568
These are yes or no findings as the source states them, for the method shown. Binding seen in cells or lysates may run through a third protein. Binding calls can cover weak binding; strength is not graded here. Where a sequence is shown, tags or fusion partners need not be part of it.

Target: 2xMyc-tagged-Vtd (Drosophila)
Assay: co-IP; extracts of S2 cells transfected with two tagged constructs; IP with anti-FLAG, anti-V5 or anti-Myc at 4 °C for 2 h, protein G beads; IP buffer 20 mM HEPES pH 7.4, 80 mM KCl, 0.2% NP-40

B1: V5-tagged-Tws (protein, UniProt P36872 1-499)
chain: MGRWGRQSPVLEPPDPQMQTTPPPPTLPPRTFMRQSSITKIGNMLNTAININGAKKPASNGEASWCFSQIKGALDDDVTDADIISCVEFNHDGELLATGDKGGRVVIFQRDPASKAANPRRGEYNVYSTFQSHEPEFDYLKSLEIEEKINKIRWLQQKNPVHFLLSTNDKTVKLWKVSERDKSFGGYNTKEENGLIRDPQNVTALRVPSVKQIPLLVEASPRRTFANAHTYHINSISVNSDQETFLSADDLRINLWHLEVVNQSYNIVDIKPTNMEELTEVITAAEFHPTECNVFVYSSSKGTIRLCDMRSAALCDRHSKQFEEPENPTNRSFFSEIISSISDVKLSNSGRYMISRDYLSIKVWDLHMETKPIETYPVHEYLRAKLCSLYENDCIFDKFECCWNGKDSSIMTGSYNNFFRVFDRNSKKDVTLEASRDIIKPKTVLKPRKVCTGGKRKKDEISVDCLDFNKKILHTAWHPEENIIAVAATNNLFIFQDKF
binding: binds
